Non-standard residues stand in square brackets, D forms with d. No end group written: not given here.
System: ApoE−/− mice infused with Ang II
Experiment: Systolic blood pressure (CODA tail-cuff) in Ang II-infused ApoE−/− mice
Assay type: in vivo
Settings: 3 mg/kg/day with Ang II 1000 ng/kg/min by osmotic minipump, end of treatment (28 days)

D-Arg-2′,6′-dimethyltyrosine-Lys-Phe-NH2 [SS-31]
systolic blood pressure: not significantly altered

F[dR]FK-NH2 [SS-20]
systolic blood pressure: not significantly altered

— patent US20220273754A1, “SS-31 FOR THE PREVENTION AND/OR TREATMENT OF ANEURYSM” (FUNDACIÓ INSTITUT DE RECERCA DE L'HOSPITAL DE LA SANTA CREU …, priority 2019, published 2022)
